Laboratory results from PubChem BioAssay AID493014 (National Center for Advancing Translational Sciences (NCATS), 2011).
Some of the results follow. Shown are side measurements of this screen, not its main read-out; they come without a call. Most of these compounds were active or inconclusive in the main read-out, so they are no random draw. Potencies come from curve fits of mixed quality, noted in brackets.

assay: qHTS Assay to Find Inhibitors of Chronic Active B-Cell Receptor Signaling; settings: ABC-DLBCL IkBa-CBG/CBR reporter, luminescence ratio (green luciferase fused to IkBa over red control in TMD8 lymphoma cells), 4 h; measured here: CBR red luminescence, cell number
Method in brief: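 Compounds up to 46 uM were incubated four hours with TMD8 cells whose green CBG68 luciferase is fused to IkappaBalpha; red CBR luminescence normalised the signal, and concentration-effect curves were fitted to fusion, red and ratio data.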

Row | SMILES | AC50
1 | COC(=O)Cn1c(=O)c2c(nc(Br)n2Cc2ccccc2Cl)n(C)c1=O | 0.398 µM [falling, full curve, poor fit]
2 | COc1ccccc1N(C)S(=O)(=O)c1ccc(Cl)c(C(=O)NCc2ccco2)c1 | 29.1 µM [falling, single point]
3 | COc1ccc(C)cc1NC(=O)c1cccc(-c2ccc(OC(C)=O)cc2)c1 | 7.08 µM [falling, full curve, poor fit]
4 | CCCCn1c(O)c(N=Nc2ccccn2)c2ccccc21 | 5.8 µM [rising, full curve]
5 | Cc1ccc(C2(C)NC(=O)N(CC(=O)NC(C)c3ccccc3)C2=O)cc1 (stereo not drawn) | 6.31 µM [falling, single point]
6 | COc1cccc(CN2C(=O)CCC2(C)C(=O)NC2CCCC2)c1 (stereo not drawn) | 2.59 µM [rising, full curve]
7 | C=CCNC(=O)/C(C#N)=C/c1c(N(Cc2ccccc2)Cc2ccccc2)nc2ccccn2c1=O | 29.1 µM [falling, single point]
8 | CCOc1cc(N2CCOCC2)c(OCC)cc1NC(=O)COC(=O)CCOc1cc(C)ccc1C | 29.1 µM [falling, single point]
9 | CCCC(C)C(=O)N(Cc1ccccc1)c1ccccn1 (stereo not drawn) | 10.3 µM [rising, partial curve, poor fit]
10 | C=CCOC(=O)C(C#N)c1nc2ccccc2nc1N1CCCC1 (stereo not drawn) | 6.51 µM [rising, single point]
11 | CCCCC(O)(CCCC)C(=O)NN(C(=O)CCl)c1ccccc1 | 6.51 µM [falling, partial curve]
12 | Cc1cc(O)c(-c2cc(C(=O)Nc3ccc(S(=O)(=O)N4CCOCC4)cc3)[nH]n2)cc1C | 16.4 µM [falling, single point]
13 | COc1ccccc1N1CCN(C(CNS(C)(=O)=O)c2cccnc2)CC1 (stereo not drawn) | 7.08 µM [falling, partial curve]
14 | O=C1CN(c2ccccc2F)C(=O)CN1c1ccccc1F | 6.51 µM [rising, single point]
15 | CCN(CCCNC(=O)Cn1ncc2c(=O)oc3ccccc3c21)c1cccc(C)c1 | 20 µM [rising, single point]
16 | O=C(/C=C/c1ccc([N+](=O)[O-])cc1)N1CCN(S(=O)(=O)c2ccccc2)CC1 | 2.59 µM [rising, partial curve]
17 | Cc1c(C(=O)N/N=C/c2ccoc2)cccc1[N+](=O)[O-] | 3.55 µM [falling, single point]
18 | Cc1ccc(-c2nc(C(=O)NCC3CCCO3)cc3c2[nH]c2ccccc23)cc1 (stereo not drawn) | 3.98 µM [falling, full curve]

3 entries from above, sorted by count of non-hydrogen atoms, high to low.
Row | SMILES | AC50
8 | CCOc1cc(N2CCOCC2)c(OCC)cc1NC(=O)COC(=O)CCOc1cc(C)ccc1C | 29.1 µM [falling, single point]
6 | COc1cccc(CN2C(=O)CCC2(C)C(=O)NC2CCCC2)c1 (stereo not drawn) | 2.59 µM [rising, full curve]
17 | Cc1c(C(=O)N/N=C/c2ccoc2)cccc1[N+](=O)[O-] | 3.55 µM [falling, single point]
